# Record: PubChem BioAssay AID1159578 (Peter MacCallum Cancer Centre, 2015)
# Purpose: 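Knock-downs that alter how fast lymphatic endothelial cells migrate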 (primary screen)
# Cell system: human lymphatic endothelial cells
# Reagent: siRNA pool against human genes, 40 nM
# Timing: 48 h after transfection
# Measurement: 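Cells stained with dye and imaged after a scratch; covered wound area and nuclei counted, duplicates averaged, migration set against mock wells and turned into a robust z-score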
# Scale: migration robust z-score: higher = faster migration into the scratch; migration relative to mock: higher = more scratch area covered than mock; nuclei per well: higher = more cells in the well
# Call rule: 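Migration changed when robust z exceeds 2 or falls below -2 and mean nuclei number is at least 3300; otherwise not called changed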
# Calls: active = migration changed; inactive = no migration change, or too few cells
# This is a random part of about 18,000 reagents. About 1,030 of them (5.7%) count as active. 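Inactive calls also include pools with fewer than 3300 nuclei, whose migration was not assessed.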 Raw values are not corrected between plates.
gene symbol,migration robust z-score,migration class with cell-count check,migration relative to mock,"nuclei per well, duplicate mean",activity call
PLEKHS1 (pleckstrin homology domain containing S1),-1.08,migration z between -2 and 2; enough cells,0.6,4436,inactive
"PFKM (phosphofructokinase, muscle)",-1.06,migration z between -2 and 2; enough cells,0.6,5566,inactive
DEFB129 (defensin beta 129),-2.14,migration z below -2; enough cells,0.34,4012,active
ZNF626 (zinc finger protein 626),0.84,migration z between -2 and 2; enough cells,1.09,6002,inactive
NAP1L3 (nucleosome assembly protein 1 like 3),0.72,migration z between -2 and 2; enough cells,1.07,5860,inactive
RNF24 (ring finger protein 24),0.5,migration z between -2 and 2; enough cells,0.9,6376,inactive
SMAD2 (SMAD family member 2),1.38,migration z between -2 and 2; enough cells,1.07,6316,inactive
HBZ (hemoglobin subunit zeta),1.31,migration z between -2 and 2; enough cells,1.23,6792,inactive
SLC41A1,0.57,migration z between -2 and 2; enough cells,0.92,5516,inactive
"ELANE (elastase, neutrophil expressed)",0.83,migration z between -2 and 2; enough cells,0.96,5360,inactive
ERN2 (endoplasmic reticulum to nucleus signaling 2),-0.68,migration z between -2 and 2; enough cells,0.68,4415,inactive
FANK1 (fibronectin type III and ankyrin repeat domains 1),0.32,migration z between -2 and 2; enough cells,0.97,3742,inactive
CMTR2 (cap methyltransferase 2),1.02,migration z between -2 and 2; enough cells,1.15,6340,inactive
GALC (galactosylceramidase),1.38,migration z between -2 and 2; enough cells,1.07,5420,inactive
DNAJC17 (DnaJ heat shock protein family (Hsp40) member C17),-0.54,migration z between -2 and 2; enough cells,0.74,5010,inactive
FGFBP2 (fibroblast growth factor binding protein 2),0.46,migration z between -2 and 2; enough cells,1,5117,inactive
ZNF517 (zinc finger protein 517),0.85,migration z between -2 and 2; enough cells,1.1,6017,inactive
VWC2 (von Willebrand factor C domain containing 2),-3.67,under 3300 nuclei; migration not judged,-0.09,3101,inactive
KCNRG (potassium channel regulator),0.99,migration z between -2 and 2; enough cells,1,4848,inactive
LGMN (legumain),0.36,migration z between -2 and 2; enough cells,0.87,4865,inactive
SCAMP3,0.3,migration z between -2 and 2; enough cells,0.96,4898,inactive
LRRC56 (leucine rich repeat containing 56),0.64,migration z between -2 and 2; enough cells,1.05,6364,inactive
TDRD7 (tudor domain containing 7),-1.14,migration z between -2 and 2; enough cells,0.59,5476,inactive
MKRN1 (makorin ring finger protein 1),-0.44,migration z between -2 and 2; enough cells,0.72,6412,inactive
USP54 (ubiquitin specific peptidase 54),-0.98,migration z between -2 and 2; enough cells,0.63,6428,inactive
HCLS1 (hematopoietic cell-specific Lyn substrate 1),-0.58,migration z between -2 and 2; enough cells,0.74,5624,inactive
PRMT2IP (PRMT2 interacting protein),-0.6,migration z between -2 and 2; enough cells,0.73,6070,inactive
FER1L6 (fer-1 like family member 6),-2.81,migration z below -2; enough cells,0.16,6006,active
NOMO1 (NODAL modulator 1),0.32,migration z between -2 and 2; enough cells,0.96,5953,inactive
ANKZF1 (ankyrin repeat and zinc finger peptidyl tRNA hydrolase 1),-1.75,under 3300 nuclei; migration not judged,0.44,2318,inactive
ANKRD37 (ankyrin repeat domain 37),-0.26,migration z between -2 and 2; enough cells,0.82,5491,inactive
"PNPLA5 (patatin like domain 5, triacylglycerol lipase)",0.57,migration z between -2 and 2; enough cells,1.03,5916,inactive
CCDC28A (coiled-coil domain containing 28A),1.3,migration z between -2 and 2; enough cells,1.22,5559,inactive
"NPLOC4 (NPL4 homolog, ubiquitin recognition factor)",-0.4,migration z between -2 and 2; enough cells,0.78,6754,inactive
ARHGAP26 (Rho GTPase activating protein 26),0.82,migration z between -2 and 2; enough cells,1.1,5129,inactive
TRIB2 (tribbles pseudokinase 2),-5.55,under 3300 nuclei; migration not judged,-0.26,1421,inactive
MMP14 (matrix metallopeptidase 14),0.52,migration z between -2 and 2; enough cells,0.9,5200,inactive
SOCS7 (suppressor of cytokine signaling 7),0.99,migration z between -2 and 2; enough cells,1,5250,inactive
MAPK11 (mitogen-activated protein kinase 11),-4.04,migration z below -2; enough cells,0.02,4259,active
CARD18 (caspase recruitment domain family member 18),0.57,migration z between -2 and 2; enough cells,0.92,6052,inactive
GNLY (granulysin),-0.11,migration z between -2 and 2; enough cells,0.86,6047,inactive
NDUFB1 (NADH:ubiquinone oxidoreductase subunit B1),0.18,migration z between -2 and 2; enough cells,0.84,6038,inactive
OSTF1 (osteoclast stimulating factor 1),-0.26,migration z between -2 and 2; enough cells,0.76,6880,inactive
ADAM23 (ADAM metallopeptidase domain 23),-0.02,migration z between -2 and 2; enough cells,0.8,6515,inactive
ELSPBP1 (epididymal sperm binding protein 1),-1.61,migration z between -2 and 2; enough cells,0.46,5816,inactive
ONECUT3 (one cut homeobox 3),1.92,migration z between -2 and 2; enough cells,1.38,6370,inactive
TAF10 (TATA-box binding protein associated factor 10),0.28,migration z between -2 and 2; enough cells,0.86,5286,inactive
FCER1G (Fc epsilon receptor Ig),-0.16,migration z between -2 and 2; enough cells,0.78,5752,inactive
SAMD4B (sterile alpha motif domain containing 4B),-0.88,migration z between -2 and 2; enough cells,0.66,5074,inactive
ATCAY (ATCAY kinesin light chain interacting caytaxin),0.98,migration z between -2 and 2; enough cells,1.14,5718,inactive
ZNFX1 (zinc finger NFX1-type containing 1),0.88,migration z between -2 and 2; enough cells,0.98,6036,inactive
IRAK2 (interleukin 1 receptor associated kinase 2),-0.44,migration z between -2 and 2; enough cells,0.72,4912,inactive
PRDM12 (PR/SET domain 12),0.18,migration z between -2 and 2; enough cells,0.84,6106,inactive
SHARPIN (SHANK associated RH domain interactor),1.05,migration z between -2 and 2; enough cells,1.16,6281,inactive
TECPR2 (tectonin beta-propeller repeat containing 2),1.72,migration z between -2 and 2; enough cells,1.33,5292,inactive
PHETA1 (PH domain containing endocytic trafficking adaptor 1),2.08,migration z above 2; enough cells,1.42,6918,active
PAXIP1 (PAX interacting protein 1),-0.58,migration z between -2 and 2; enough cells,0.74,5933,inactive
